Some of the results follow.
Each sequence was assayed against OsWRKY34 (Oryza sativa, UniProt Q0JBA9 1-250) (assay: protein-binding microarray (RPBM); PBS, 2% BSA, 51.3 ng/ul salmon testes DNA, 50 uM zinc acetate, 200 nM TF, 25 C, 1 h; high values mean tight binding). Conditions: protein: recombinant; tags: N-terminal polyhistidine and DsRed monomer fusion (pET32a); label: CyDye5-dUTP incorporated in the synthesized complementary strand; 3' TTTTT single-stranded linker to array surface; dsDNA, one strand shown.
How it was run: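 A custom Agilent array was converted to double-stranded form by primer extension with Cy5-dUTP and blocked with 2% BSA. Protein at 200 nM in PBS with 2% BSA, salmon testes DNA and 50 µM zinc acetate was applied for 1 h at 25 °C, followed by washing. The proteins were polyhistidine–DsRed N-terminal fusions of transcription factors, expressed in E. coli BL21-CodonPlus and Ni–NTA-purified. The binding signal is per-feature fluorescence intensity (arbitrary units) from an Axon 4000B scanner.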

Amino acid sequences for entries named in this document (tags omitted).
UniProt Q0JBA9, entry or part of it: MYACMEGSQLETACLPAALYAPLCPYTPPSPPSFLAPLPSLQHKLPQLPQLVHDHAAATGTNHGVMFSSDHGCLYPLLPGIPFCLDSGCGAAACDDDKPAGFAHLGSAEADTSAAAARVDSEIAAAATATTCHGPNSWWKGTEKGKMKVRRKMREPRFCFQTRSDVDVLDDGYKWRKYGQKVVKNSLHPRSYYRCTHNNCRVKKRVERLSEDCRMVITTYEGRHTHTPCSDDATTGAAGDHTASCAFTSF

| Sequence | binding signal |
| --- | --- |
| TATAATTAAGTCCCGTTTTGATTGCTATTTTGGTTGGTTTCGGAGTCACCTAGTGCAG | 10100 fluorescence intensity (a.u.) |
| AATTGAATCAGACTTTCTTTTTTTGTTTTAATGTTTTTTCCGGAGTCACCTAGTGCAG | 9050 fluorescence intensity (a.u.) |
| TCGCACGCCGCGACGCCTCTGCTGAACATTTCGCTCTCTTCGGAGTCACCTAGTGCAG | 9430 fluorescence intensity (a.u.) |
| ATCAGTAGTCCTTTTCAAAACTGGAACCGTTGTTGCATCACGGAGTCACCTAGTGCAG | 8270 fluorescence intensity (a.u.) |
| GTGGGTTGATATCTAGAAATGTTTATACTAGGAACGAAGTCGGAGTCACCTAGTGCAG | 8880 fluorescence intensity (a.u.) |
| CTTCGCTTTCGCTCTCGCGGTCTCGCCGTCCTCCTCTTATCGGAGTCACCTAGTGCAG | 8630 fluorescence intensity (a.u.) |
| CGCCGTCGCCTCACCATCTCATCCGTCTCGAAATCCCGCCCGGAGTCACCTAGTGCAG | 8470 fluorescence intensity (a.u.) |
| GTGTGTTGTTAGCTGTAAATATTACTTCATGGAGAAAATTCGGAGTCACCTAGTGCAG | 10800 fluorescence intensity (a.u.) |
| AGAACTTCCCCTTCTCAGTGACATATGTTCCATTATCCGCCGGAGTCACCTAGTGCAG | 8870 fluorescence intensity (a.u.) |
| GATACCCTAATACCAGTTGTATTCTTTAGTTAAACTTTTTCGGAGTCACCTAGTGCAG | 8320 fluorescence intensity (a.u.) |
| TGTGGCGTTGACCACCGACGTTGAAAATGGAAGCGCACATCGGAGTCACCTAGTGCAG | 11900 fluorescence intensity (a.u.) |
| CCATTCATCAACTACACCTCACTCTCTGGCGCGTCTGCCTCGGAGTCACCTAGTGCAG | 8110 fluorescence intensity (a.u.) |
| TGGTCGTCTCGTCGTCATCGCCTCGTCGCCTCATCTCGATCGGAGTCACCTAGTGCAG | 15100 fluorescence intensity (a.u.) |
| TCTCTCCCTTATCGCTTCGCCCTTCCTTTTCCGCTCTCTTCGGAGTCACCTAGTGCAG | 8600 fluorescence intensity (a.u.) |
| GGCCGGTAGGGGTAGAACGGTCATTTCGTGCGCGGGGAGGCGGAGTCACCTAGTGCAG | 9810 fluorescence intensity (a.u.) |
| TCTTCTGAATCTTGTTTGCTTTTACCAACATGCCATGTGTCGGAGTCACCTAGTGCAG | 8100 fluorescence intensity (a.u.) |
| CCCATCATGTGACTTCCATCCTTGTTCCTAGCTGCATGCACGGAGTCACCTAGTGCAG | 9270 fluorescence intensity (a.u.) |
| GATGTCGAGCTGAGCACCACCCTAGCGGTGGAGTAGGGGACGGAGTCACCTAGTGCAG | 8240 fluorescence intensity (a.u.) |
| GTTGCAAAAGAGGCCTCTGACATGGTTCTTGCTGATGACACGGAGTCACCTAGTGCAG | 8450 fluorescence intensity (a.u.) |
| GACCATTTTTTTTCTTGTTAAACACCAATAGTACTAGTAGCGGAGTCACCTAGTGCAG | 10200 fluorescence intensity (a.u.) |
| CTGTCATGCTGTCTCGCAGTCCAATTTTGCCTCCAAGCATCGGAGTCACCTAGTGCAG | 8600 fluorescence intensity (a.u.) |

Laid out differently: entries from further up.
Sequence	binding signal
GATGTCGAGCTGAGCACCACCCTAGCGGTGGAGTAGGGGACGGAGTCACCTAGTGCAG	8240 fluorescence intensity (a.u.)
GTTGCAAAAGAGGCCTCTGACATGGTTCTTGCTGATGACACGGAGTCACCTAGTGCAG	8450 fluorescence intensity (a.u.)
GACCATTTTTTTTCTTGTTAAACACCAATAGTACTAGTAGCGGAGTCACCTAGTGCAG	10200 fluorescence intensity (a.u.)

Further records follow.

| Sequence | binding signal |
| --- | --- |
| CACCGCCGCGTCGTCCCGCGTCTCTCCTCACCTCTCGTCTCGGAGTCACCTAGTGCAG | 8200 fluorescence intensity (a.u.) |
| CGACTCCGACCTCTGCTCTCTTCCTTTTACACCCCATATCCGGAGTCACCTAGTGCAG | 11100 fluorescence intensity (a.u.) |
| TGCTCATTAACAACAACTTGGTTCTGGAGTCCATCCTCTCCGGAGTCACCTAGTGCAG | 9850 fluorescence intensity (a.u.) |
| CAGCTCTGTTCTTCATCCAACCGATAGTATGCCAACTGATCGGAGTCACCTAGTGCAG | 8190 fluorescence intensity (a.u.) |
| CTTTGCATCAAATCTGGCCGAATCTTTCTCGATCTCCCAACGGAGTCACCTAGTGCAG | 10100 fluorescence intensity (a.u.) |
| GCCAATCCCCATCGACCGTCACCCGCACGTCTTCCGCGGCCGGAGTCACCTAGTGCAG | 10100 fluorescence intensity (a.u.) |
| GGTTCTTGCTGCCATGGTTAAGGAGTGGGAGGTTTAGAGTCGGAGTCACCTAGTGCAG | 8240 fluorescence intensity (a.u.) |
| CTTTTCATTCTTTATTTTTTCCTTTGCATGTTCTACAACACGGAGTCACCTAGTGCAG | 12900 fluorescence intensity (a.u.) |
| GACTACCGATATTTTCCTTTCGTTGTTTTCCCCTGTTACACGGAGTCACCTAGTGCAG | 14700 fluorescence intensity (a.u.) |
| CACTCTTACCTATACACCATTTAATAAGAGACATTATAGTCGGAGTCACCTAGTGCAG | 8170 fluorescence intensity (a.u.) |
| CTTCCCCGCCGCCTCCACGCACTCCTCCCACGCCACGAACCGGAGTCACCTAGTGCAG | 8880 fluorescence intensity (a.u.) |
| GGCTGCCACCACTCGATCTCTCTTATCGGAGCATTGCCGGCGGAGTCACCTAGTGCAG | 8480 fluorescence intensity (a.u.) |
| AGTGATGCTTAGTTCTCCGATATGACTTCATTTCTGGCATCGGAGTCACCTAGTGCAG | 8040 fluorescence intensity (a.u.) |
| GTGAATAGTTATCCTTGTCCAGTATATGTTTGTTCTTTCGCGGAGTCACCTAGTGCAG | 12400 fluorescence intensity (a.u.) |
| TTACTTTGTGTTAGGTAATCCATTTGTCTGTACCCTCATACGGAGTCACCTAGTGCAG | 8080 fluorescence intensity (a.u.) |
| GACTTTCTCATATTTAACACGTGACTCTCTATTCTTCCACCGGAGTCACCTAGTGCAG | 11900 fluorescence intensity (a.u.) |
| CGCCGTCGTCGACCTGGAGCTTCTCGGCGATCTCCTCGAACGGAGTCACCTAGTGCAG | 9210 fluorescence intensity (a.u.) |
| AACATGAGTCAAAGCTACTCCATCTTCATGTCCCAATCCCCGGAGTCACCTAGTGCAG | 8080 fluorescence intensity (a.u.) |
| ATCACTTCCTTATGGTGGATCCCGTCGAGCCCAACCCAAACGGAGTCACCTAGTGCAG | 8810 fluorescence intensity (a.u.) |
| CACTGACGCGCCCCTCCACCTCCCGTAGTTCTTCCGTCCCCGGAGTCACCTAGTGCAG | 9380 fluorescence intensity (a.u.) |
| GCCTTTCATCTTCATTCATTCCACCGTGCTTTGCAGCTGACGGAGTCACCTAGTGCAG | 11900 fluorescence intensity (a.u.) |

— PMC7819943, “Rice protein-binding microarrays: a tool to detect cis-acting elements near promoter regions in rice”
